This is an account of results in paper PMC5841360.

Protein sequences, listed by entry. Tags and fused reporters are not part of them. Lines headed by an entry give the natural chain unless they say otherwise; changes in a name come on top. Residues count along the entry.
UniProt Q66HL2: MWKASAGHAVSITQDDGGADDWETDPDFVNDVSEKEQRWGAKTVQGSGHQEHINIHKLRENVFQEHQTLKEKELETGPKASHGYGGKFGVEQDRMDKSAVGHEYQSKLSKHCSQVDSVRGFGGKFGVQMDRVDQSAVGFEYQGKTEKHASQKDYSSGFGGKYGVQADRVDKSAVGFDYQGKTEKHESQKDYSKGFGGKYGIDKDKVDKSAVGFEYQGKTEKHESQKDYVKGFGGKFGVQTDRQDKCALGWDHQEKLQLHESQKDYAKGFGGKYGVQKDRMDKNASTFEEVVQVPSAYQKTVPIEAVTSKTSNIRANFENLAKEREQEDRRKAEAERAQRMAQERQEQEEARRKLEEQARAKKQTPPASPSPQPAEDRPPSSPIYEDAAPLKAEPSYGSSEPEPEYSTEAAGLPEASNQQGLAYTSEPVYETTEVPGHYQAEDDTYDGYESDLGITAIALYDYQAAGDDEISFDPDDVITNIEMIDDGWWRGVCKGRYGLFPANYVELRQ
UniProt P19491, residues 22-883: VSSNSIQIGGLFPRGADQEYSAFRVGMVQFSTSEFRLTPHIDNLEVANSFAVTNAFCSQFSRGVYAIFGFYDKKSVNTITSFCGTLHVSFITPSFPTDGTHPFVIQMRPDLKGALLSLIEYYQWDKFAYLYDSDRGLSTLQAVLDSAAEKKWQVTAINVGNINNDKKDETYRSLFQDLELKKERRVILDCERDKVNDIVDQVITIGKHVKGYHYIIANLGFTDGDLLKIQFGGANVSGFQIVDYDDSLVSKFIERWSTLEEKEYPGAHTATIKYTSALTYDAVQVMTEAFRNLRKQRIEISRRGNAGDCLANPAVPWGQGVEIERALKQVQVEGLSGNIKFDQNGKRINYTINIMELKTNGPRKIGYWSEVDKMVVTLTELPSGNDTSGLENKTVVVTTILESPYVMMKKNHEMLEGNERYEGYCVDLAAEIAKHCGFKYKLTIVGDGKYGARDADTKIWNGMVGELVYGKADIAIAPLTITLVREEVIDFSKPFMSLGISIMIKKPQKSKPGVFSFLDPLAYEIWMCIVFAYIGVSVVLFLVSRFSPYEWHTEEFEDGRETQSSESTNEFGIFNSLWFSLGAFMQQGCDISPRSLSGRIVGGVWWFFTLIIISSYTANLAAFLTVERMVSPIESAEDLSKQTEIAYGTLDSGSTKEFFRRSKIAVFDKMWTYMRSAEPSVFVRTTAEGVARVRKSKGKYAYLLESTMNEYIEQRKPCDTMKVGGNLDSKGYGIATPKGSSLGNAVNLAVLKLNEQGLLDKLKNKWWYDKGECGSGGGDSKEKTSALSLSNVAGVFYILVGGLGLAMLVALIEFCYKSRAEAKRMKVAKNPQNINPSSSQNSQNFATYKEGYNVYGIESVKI

Results are given in words; binding and its absence hold for the method and conditions named. Binding seen in cells or lysates may run through a third protein. Binding calls can cover weak binding; strength is not graded here.

The assay deals with cortactin (endogenous, neurons) (rat (endogenous in cultured neurons)) (UniProt Q66HL2). Description: co-IP; lysates of cultured neurons immunoprecipitated with cortactin antibody or control IgG; Western blotting; also after NMDA for 3 min (cLTD; 0, 5 and 15 min after stimulation) with or without the Src inhibitor PP2. On the technique in general: A western blot detects proteins with antibodies after separation by electrophoresis.

On to “GluA2 AMPA receptor subunit (endogenous, neurons) (from UniProt P19491 22-883)”, for which the binding entry is on record as “binds weakly”.
